The source of these data is publication PMC9289666, “Highly Parallelized, Multicolor Optogenetic Recordings of Cellular Activity for Therapeutic Discovery Applications in Ion Channels and Disease-Associated Excitable Cells” (Frontiers in Molecular Neuroscience, 2022).

Amino acid sequences for entries named in this document (tags omitted).
UniProt Q15858, whole entry: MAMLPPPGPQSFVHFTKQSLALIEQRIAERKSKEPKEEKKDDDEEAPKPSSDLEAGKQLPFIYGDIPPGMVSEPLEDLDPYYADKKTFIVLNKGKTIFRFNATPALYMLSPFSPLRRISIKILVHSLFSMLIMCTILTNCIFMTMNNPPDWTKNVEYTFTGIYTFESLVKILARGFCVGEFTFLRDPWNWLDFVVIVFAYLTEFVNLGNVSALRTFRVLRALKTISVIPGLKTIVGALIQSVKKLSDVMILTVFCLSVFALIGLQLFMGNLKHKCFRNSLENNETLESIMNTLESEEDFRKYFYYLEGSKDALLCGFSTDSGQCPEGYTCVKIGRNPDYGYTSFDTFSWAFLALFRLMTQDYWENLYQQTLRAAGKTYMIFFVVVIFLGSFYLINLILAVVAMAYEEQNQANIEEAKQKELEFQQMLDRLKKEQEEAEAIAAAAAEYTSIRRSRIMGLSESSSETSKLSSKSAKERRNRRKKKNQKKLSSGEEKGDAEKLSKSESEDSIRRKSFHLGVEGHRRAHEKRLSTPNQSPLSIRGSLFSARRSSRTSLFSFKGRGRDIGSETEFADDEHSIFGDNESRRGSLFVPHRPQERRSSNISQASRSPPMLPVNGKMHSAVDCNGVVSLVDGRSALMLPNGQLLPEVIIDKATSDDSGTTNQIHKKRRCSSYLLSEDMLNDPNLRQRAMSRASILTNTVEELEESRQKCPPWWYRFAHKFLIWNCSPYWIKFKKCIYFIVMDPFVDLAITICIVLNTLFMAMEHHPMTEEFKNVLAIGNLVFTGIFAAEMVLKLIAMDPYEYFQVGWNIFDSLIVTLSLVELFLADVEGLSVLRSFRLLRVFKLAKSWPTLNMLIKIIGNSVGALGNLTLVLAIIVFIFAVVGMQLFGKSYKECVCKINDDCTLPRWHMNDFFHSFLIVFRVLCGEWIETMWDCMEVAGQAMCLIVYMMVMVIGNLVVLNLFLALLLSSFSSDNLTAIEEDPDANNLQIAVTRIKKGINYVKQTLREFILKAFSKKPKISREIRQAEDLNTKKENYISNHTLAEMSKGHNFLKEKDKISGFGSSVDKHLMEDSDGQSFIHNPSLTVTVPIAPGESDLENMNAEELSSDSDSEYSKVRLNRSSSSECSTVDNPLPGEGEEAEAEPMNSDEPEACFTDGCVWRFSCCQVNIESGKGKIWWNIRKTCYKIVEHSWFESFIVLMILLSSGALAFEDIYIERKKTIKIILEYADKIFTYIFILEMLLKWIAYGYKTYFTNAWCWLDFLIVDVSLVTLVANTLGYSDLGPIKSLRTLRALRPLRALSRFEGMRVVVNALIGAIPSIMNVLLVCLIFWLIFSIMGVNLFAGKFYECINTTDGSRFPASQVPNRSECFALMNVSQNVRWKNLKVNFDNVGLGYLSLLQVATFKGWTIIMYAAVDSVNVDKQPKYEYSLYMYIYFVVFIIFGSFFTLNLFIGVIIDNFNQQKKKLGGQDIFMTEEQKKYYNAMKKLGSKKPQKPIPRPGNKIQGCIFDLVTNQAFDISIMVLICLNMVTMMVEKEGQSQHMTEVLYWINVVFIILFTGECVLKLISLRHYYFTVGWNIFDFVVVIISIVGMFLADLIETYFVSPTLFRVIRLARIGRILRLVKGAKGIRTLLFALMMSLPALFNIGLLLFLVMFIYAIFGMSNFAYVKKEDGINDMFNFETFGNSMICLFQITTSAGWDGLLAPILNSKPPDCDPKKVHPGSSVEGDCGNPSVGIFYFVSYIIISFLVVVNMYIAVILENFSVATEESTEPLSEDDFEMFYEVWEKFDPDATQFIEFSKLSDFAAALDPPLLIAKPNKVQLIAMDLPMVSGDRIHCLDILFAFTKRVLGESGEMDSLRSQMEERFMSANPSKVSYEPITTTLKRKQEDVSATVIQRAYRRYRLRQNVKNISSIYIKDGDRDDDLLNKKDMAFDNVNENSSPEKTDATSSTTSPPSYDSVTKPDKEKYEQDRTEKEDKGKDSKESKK

For orientation: IC50 means the midpoint of a concentration-inhibition curve.

For one series, the target named is T1, human Nav.1.7 (Homo sapiens, UniProt Q15858).
T1 construct: expressed in transfected cells
Briefly: Nav1.7 spiking HEK assay on Swarm. Format: cell-based. The note with it: normalized mean spike amplitude score; Prestwick library compounds.

For another series, the system named is Nav1.5. As to conditions: read-out: Nav1.5 Ionworks (IC50); automated patch clamp, literature reported; ref Harmer et al., 2011; cited from earlier work.

Turning to `CN1CCC[C@@H]1CCO[C@](C)(c1ccccc1)c1ccc(Cl)cc1` [Clemastine], the “Nav1.7 Swarm (score at 3 µM)” value on human Nav.1.7 came out at 0.02. In addition, the concentration for half-maximal inhibition (IC50) with Nav1.5 was 4 µM.
